Counter-ions that a name gives are not always drawn. ± gives the standard deviation of the averaged measurements. The list shows a part of the results. These are raw signals, not scaled to a control.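 HeLa cells imaged for ribosome-assembly readouts (ENP1 staining with or without export block, or inducible tagged ribosomal protein reporters); machine learning classified each cell's signal location against solvent (DMSO) controls. Hits exceeded the DMSO false-positive mean by five standard deviations, then were visually confirmed; three biological replicates.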
Assays:
[1] = system: HeLa K (ENP1 immunofluorescence, +LMB); test: fraction of cells with nucleolar or nucleolar/nucleoplasmic ENP1 signal (MainHitrate); higher = more cells with nucleolar/nuclear readout signal (for ENP1 -LMB: less RNAPI inhibition; for +LMB ENP1 and RP reporters: stronger nuclear/nucleolar retention, i.e. ribosome biogenesis defect); conditions: concentration: 1 µM; treatment time: 6 h; ENP1 +LMB; leptomycin B: 20 nM, last 1.5 h
[2] = system: HeLa K (ENP1 immunofluorescence, no LMB); test: as above; conditions: concentration: 1 µM; treatment time: 6 h; ENP1 -LMB; leptomycin B: none
HeLa RPS2-YFP reporter = test: fraction of reporter-positive cells with nuclear (nucleolar or nucleolar/nucleoplasmic) RPS2-YFP (MainHitrate); higher = more cells with nucleolar/nuclear readout signal (for ENP1 -LMB: less RNAPI inhibition; for +LMB ENP1 and RP reporters: stronger nuclear/nucleolar retention, i.e. ribosome biogenesis defect); conditions: concentration: 1 µM; treatment time: 6 h
HeLa RPL29-GFP reporter = test: fraction of reporter-positive cells with nuclear (nucleolar or nucleolar/nucleoplasmic) RPL29-GFP (MainHitrate); higher = more cells with nucleolar/nuclear readout signal (for ENP1 -LMB: less RNAPI inhibition; for +LMB ENP1 and RP reporters: stronger nuclear/nucleolar retention, i.e. ribosome biogenesis defect); conditions: concentration: 1 µM; treatment time: 6 h

Row | Structure (SMILES) | fraction [1] | fraction [2] | fraction of reporter-positive cells with nuclear (HeLa RPS2-YFP reporter) | fraction of reporter-positive cells with nuclear (HeLa RPL29-GFP reporter)
1 | CCCC(CCC)C(=O)O [Divalproex sodium] | 0.0739 ± 0.068 | 0.9982 ± 0.0032 | 0.109 ± 0.071 | 0.192 ± 0.059
2 | CC1(C)S[C@@H]2[C@H](NC(=O)[C@H](N)c3ccc(O)cc3)C(=O)N2[C@H]1C(=O)O [Amoxicillin sodium (Amox)] | 0.105 ± 0.16 | 0.9977 ± 0.004 | 0.132 ± 0.095 | 0.222 ± 0.095
3 | CC(C)NCC(O)c1ccc(NS(C)(=O)=O)cc1 (centres undefined) [Sotalol (Betapace)] | 0.114 ± 0.14 | 0.991 ± 0.015 | 0.1 ± 0.075 | 0.228 ± 0.1
4 | O=c1c(-c2ccc(O)cc2)coc2cc(O)ccc12 [Daidzein] | 0.101 ± 0.13 | 0.992 ± 0.014 | 0.104 ± 0.042 | 0.219 ± 0.076
5 | NCC[C@H](O)C(=O)N[C@@H]1C[C@H](N)[C@@H](O[C@H]2O[C@H](CN)[C@@H](O)[C@H](O)[C@H]2O)[C@H](O)[C@H]1O[C@H]1O[C@H](CO)[C@@H](O)[C@H](N)[C@H]1O [Amikacin sulfate] | 0.0587 ± 0.08 | 0.989 ± 0.019 | 0.121 ± 0.086 | 0.221 ± 0.059
6 | Cc1ccccc1C(=O)Nc1ccc(C(=O)N2CCCC(O)c3cc(Cl)ccc32)c(C)c1 (centres undefined) | 0.0399 ± 0.037 | 0.989 ± 0.018 | 0.108 ± 0.088 | 0.21 ± 0.077
7 | CCN(CC)CCOC(=O)C1(C2CCCCC2)CCCCC1 [Dicyclomine HCl] | 0.168 ± 0.24 | 0.9971 ± 0.005 | 0.21 ± 0.073 | 0.294 ± 0.24
8 | C#CCC(Cc1cnc2nc(N)nc(N)c2n1)c1ccc(C(=O)N[C@@H](CCC(=O)O)C(=O)O)cc1 (some centres undefined) [Pralatrexate (Folotyn)] | 0.0593 ± 0.052 | 0.9984 ± 0.0028 | 0.106 ± 0.09 | 0.174 ± 0.039
9 | CC1(C)O[C@@H]2C[C@H]3[C@@H]4C[C@H](F)C5=CC(=O)C=C[C@]5(C)[C@@]4(F)[C@@H](O)C[C@]3(C)[C@]2(C(=O)CO)O1 [Fluocinolone acetonide (Flucort-N)] | 0.0662 ± 0.092 | 0.996 ± 0.007 | 0.078 ± 0.046 | 0.289 ± 0.032
10 | CN(C/C=C/c1ccccc1)Cc1cccc2ccccc12 [Naftifine HCl] | 0.0435 ± 0.055 | 0.979 ± 0.037 | 0.131 ± 0.087 | 0.209 ± 0.067
11 | CC[C@]1(O)C[C@@H]2CN(CCc3c([nH]c4ccccc34)[C@@](C(=O)OC)(c3cc4c(cc3OC)N(C)[C@H]3[C@@](O)(C(=O)OC)[C@H](OC(C)=O)[C@]5(CC)C=CCN6CC[C@]43[C@@H]65)C2)C1 [Vinblastine] | 0.301 ± 0.15 | 0.9968 ± 0.0055 | 0.192 ± 0.14 | 0.341 ± 0.15
12 | CN(C)CCN(Cc1cccs1)c1ccccn1 [Methapyrilene HCl] | 0.106 ± 0.14 | 0.991 ± 0.015 | 0.166 ± 0.17 | 0.278 ± 0.21
13 | C[C@@H]1CC(=O)NN=C1c1ccc(NN=C(C#N)C#N)cc1 [Levosimendan] | 0.104 ± 0.15 | 0.9955 ± 0.0077 | 0.128 ± 0.11 | 0.211 ± 0.066
14 | CC1CCc2cc(F)cc3c(=O)c(C(=O)O)cn1c23 (centres undefined) [Flumequine] | 0.131 ± 0.2 | 0.978 ± 0.039 | 0.11 ± 0.091 | 0.206 ± 0.068
15 | CN(C)CCN1C(=O)c2ccccc2N(C)c2ccccc21 [Dibenzepine HCl] | 0.051 ± 0.05 | 0.9959 ± 0.0071 | 0.137 ± 0.14 | 0.317 ± 0.21
16 | Cn1ccnc1S [Methimazole (Tapazole, Northyx)] | 0.0754 ± 0.088 | 0.9977 ± 0.004 | 0.104 ± 0.063 | 0.209 ± 0.067

Only fraction of reporter-positive cells with nuclear (HeLa RPS2-YFP reporter) and fraction [2], for some of the entries so far:
Row | Structure (SMILES) | fraction of reporter-positive cells with nuclear (HeLa RPS2-YFP reporter) | fraction [2]
10 | CN(C/C=C/c1ccccc1)Cc1cccc2ccccc12 [Naftifine HCl] | 0.131 ± 0.087 | 0.979 ± 0.037
11 | CC[C@]1(O)C[C@@H]2CN(CCc3c([nH]c4ccccc34)[C@@](C(=O)OC)(c3cc4c(cc3OC)N(C)[C@H]3[C@@](O)(C(=O)OC)[C@H](OC(C)=O)[C@]5(CC)C=CCN6CC[C@]43[C@@H]65)C2)C1 [Vinblastine] | 0.192 ± 0.14 | 0.9968 ± 0.0055
